Laboratory results published in paper PMC8879959, “In Vivo Antistress Effects of Synthetic Flavonoids in Mice: Behavioral and Biochemical Approach” (Molecules, 2022).

What was measured:
Format in all cases: in vivo, Balb/C mice
[1] = tested on: acetic acid-induced stress mice; experiment: Chemical induced stress (acetic acid model, writhes); conditions: Mus musculus, ip, 360 h, read-out: Antistress Response (%)
Description: The anti-stress effect of synthesized flavonoids was screened for chemical-induced stress using the acetic acid model. Animals were randomly assigned into two groups of 8. The control group received Tween 80 (2%). […] The treatments in all groups were given persistently for a period of 15 days.

mice [2] = experiment: Restraint stress, organ weights; conditions: restraint stress 2 h; flavonoids 10 mg/kg p.o., standard diazepam 2 mg/kg IP, 15 days; mean ± SEM
Description: The adhesive tape was removed, and blood samples were collected. After blood collection, the animals were sacrificed, and the brain and vital organs were isolated and weighed.

mice [3] = experiment: Biochemical parameters in brain after restraint stress; conditions: flavonoids 10 mg/kg, standard diazepam 2 mg/kg, 15 days, mean ± SEM

`CN1C(=O)CN=C(c2ccccc2)c2cc(Cl)ccc21` [Standard, Diazepam, reference compound] was tested, and the inhibition in vivo at 2 mg/kg [1] was 91.5%, the “Weight of Brain” value (mice [2]) was 390.8 ± 2.75 mg and the “Catalase (brain)” value (mice [3]) was 17.25 ± 0.66 IU/dL. The “SOD (brain)” value (mice [3]) was 6.56 ± 0.57 IU/dL and the “TBARS (brain lipid peroxidation)” value (mice [3]) was 18.22 ± 0.65 nmol/g.
